Results: publication PMC12229497, “The intracellular bacterium Orientia tsutsugamushi uses the autotransporter ScaC to activate BICD adaptors for dynein-based motility” (Nature Communications, 2025)
These are yes or no findings as the source states them, for the method shown. For part of these data: Sequences can lack the tags named with a protein.

By UniProt entry, the sequences of proteins in these tests, tags left out. Where a name states a change or a piece, a line headed by the entry shows the natural chain unless it says otherwise. Residues count along the entry.
UniProt Q921C5: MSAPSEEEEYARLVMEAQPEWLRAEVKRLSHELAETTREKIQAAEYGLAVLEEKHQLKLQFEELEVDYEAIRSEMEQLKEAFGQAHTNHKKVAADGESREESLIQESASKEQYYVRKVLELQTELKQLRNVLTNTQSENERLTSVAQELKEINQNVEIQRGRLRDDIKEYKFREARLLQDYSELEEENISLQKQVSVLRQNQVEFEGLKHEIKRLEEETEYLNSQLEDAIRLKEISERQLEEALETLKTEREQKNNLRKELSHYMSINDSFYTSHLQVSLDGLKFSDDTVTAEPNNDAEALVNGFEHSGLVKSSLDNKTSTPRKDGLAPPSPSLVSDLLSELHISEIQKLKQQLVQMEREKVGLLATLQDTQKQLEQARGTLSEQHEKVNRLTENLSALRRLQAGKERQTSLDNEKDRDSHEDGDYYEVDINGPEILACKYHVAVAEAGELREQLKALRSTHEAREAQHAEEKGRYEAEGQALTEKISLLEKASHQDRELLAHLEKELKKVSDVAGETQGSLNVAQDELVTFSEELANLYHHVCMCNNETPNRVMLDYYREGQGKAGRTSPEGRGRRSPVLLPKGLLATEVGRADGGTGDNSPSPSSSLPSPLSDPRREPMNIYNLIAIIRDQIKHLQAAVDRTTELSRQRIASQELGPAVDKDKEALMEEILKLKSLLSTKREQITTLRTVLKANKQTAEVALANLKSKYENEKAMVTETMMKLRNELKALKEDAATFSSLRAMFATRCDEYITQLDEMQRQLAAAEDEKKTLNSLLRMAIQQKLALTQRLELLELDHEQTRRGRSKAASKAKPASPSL
BICD2^1–710: residues 1-710 of Q921C5
BICD2^1–400: residues 1-400 of Q921C5

What was measured:
Experiment in all cases: SEC; reconstitution: BICD2 and ScaC constructs mixed in a 1:2 molar ratio, 15 min on ice, Superose 6 Increase 3.2/300 in GF150 buffer; fractions on SDS-PAGE; both purified
[1] = target: BICD2, full-length mouse (mouse) (UniProt Q921C5)
BICD2^1–710 (mouse) = BICD2^1–710 (mouse) (UniProt Q921C5)
BICD2^1–400 (mouse) = BICD2^1–400 (mouse) (UniProt Q921C5)

Molecule | binding [1] | binding (BICD2^1–710 (mouse)) | binding (BICD2^1–400 (mouse))
ScaE passenger domain (residues 49–494) (from UniProt A0A0F3MB98 49-494) (domain or fragment) | no binding |  | 
ScaC passenger domain (residues 33–223), C-terminal TEV-6His (domain or fragment, source: SoluBL21 E. coli, purified (Ni-NTA, MonoQ, Superdex 200)) VSNMNLDISNMGEAREGLRKDIAEVSKLLCMLEKSTASSKNLTMRLQQSDTRENEQSNHIRLLITEIESINKENDCLRQKNNQLKIKLHQLKVKLEQALARNTDLQQILPKSQAEMDNLRKQNEQLKIQLQQLQVKLQDLMSLQNKCSNLALINSVKLNYIRDIKYIALANIVIVKALASTFTEKLSKSNR |  | no binding | no binding
